# Test results as given in paper PMC9788671.
# Sequences of proteins named here, by UniProt entry; tags and fusion partners are left off.
# UniProt Q9NZV8: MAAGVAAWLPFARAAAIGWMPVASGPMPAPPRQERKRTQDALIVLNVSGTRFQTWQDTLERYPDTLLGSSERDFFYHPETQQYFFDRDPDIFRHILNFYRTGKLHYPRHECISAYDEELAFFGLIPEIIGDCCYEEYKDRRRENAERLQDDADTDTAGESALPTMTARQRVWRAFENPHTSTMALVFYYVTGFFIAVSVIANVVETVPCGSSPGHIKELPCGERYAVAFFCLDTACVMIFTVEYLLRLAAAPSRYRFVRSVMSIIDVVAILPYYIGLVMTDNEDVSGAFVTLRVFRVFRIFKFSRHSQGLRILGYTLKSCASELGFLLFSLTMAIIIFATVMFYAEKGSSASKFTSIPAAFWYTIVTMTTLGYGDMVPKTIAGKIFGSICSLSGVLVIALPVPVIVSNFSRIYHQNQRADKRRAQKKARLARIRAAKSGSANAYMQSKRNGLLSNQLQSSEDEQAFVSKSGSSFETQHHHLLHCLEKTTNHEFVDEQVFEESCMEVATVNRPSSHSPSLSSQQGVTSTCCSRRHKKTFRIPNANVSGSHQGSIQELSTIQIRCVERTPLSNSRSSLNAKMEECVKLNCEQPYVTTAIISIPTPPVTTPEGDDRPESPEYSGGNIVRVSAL
# These are yes or no findings as the source states them, for the method shown. In cells and extracts the contact can be indirect. Here binding means that the protein was enriched with, or labelled near, the bait; the list need not be complete.
# Biological target: TAP-Kv4.2 (human) (UniProt Q9NZV8)
# Experiment: affinity purification with mass spectrometry; TAP-Kv4.2 expressed by lentivirus in rat hippocampal neurons, harvested at DIV14; weak lysis buffer of the kit (0.1% NP-40); streptavidin resin, then calmodulin resin; gel cut into high and low molecular weight fragments; no MS of the control sample
row,binding,Binder
1,binds,"Tomm70a (protein, UniProt Q75Q39 1-610) MAASKPVEAAMAAAAAPASGNGVGSSGGTAAPGSGAGTLPRWHVALAIGAPLLLGAGAMYLWSRRRRRREAGGRGDASGLKRNSERKTPEGRASPALGSGPDGSGDSLEMSSLDRAQAAKNKGNKYFKAGKYEQAIQCYTEAISLCPTEKNADLSTFYQNRAAAFEQLQKWKEVAQDCTKAVELNPKYVKALFRRAKAHEKLDNKKECLEDVTAVCILEGFQNEQSMLLADKVLKLLGKENAKEKYKNREPLMPSPQFIKSYFSSFTDDIISQPMLKGEKSDEDKDKEGEALEVKENSGYLKAKQYMEEENYDKIISECSKEIDAQGKYMAEALLLRATFYLLIGSANAAKPDLDKVISLKEANVKLRANALIKRGTMCMQQQQPMLSTQDFNMAAEIDPMNSDVYHHRGQLKILLDLVEEAVADFDACIRLRPKFALAQAQKCFALYRQAYTANNSSQVQAAMKGFEEVIKKFPRCAEGYALYAQALTDQQQFGKADEMYDKCIDLEPDNATTYVHKGLLQLQWKQDLDKGLELISKAIEIDNKCDFAYETMGTIEVQRGNMEKAIDMFNKAINLAKSEMEMAHLYSLCDAAHAQTEVAKKYGLKPPTL"
2,binds,"Ncdn (protein, UniProt O35095 1-729) MSCCDLAAAGQLGKAGIMASDCEPALNQAESRNPTLERYLGALREAKNDSEQFAALLLVTKAVKAGDIDAKTRRRIFDAVGFTFPNRLLTTKEAPDGCPDHVLRALGVALLACFCSDPELASHPQVLNKIPILCTFLTARGDPDDAARRSMIDDTYQCLTAVAGTPRGPRHLIAGGTVSALCQAYLGHGYGFDQALALLVGLLAAAETQCWKEAEPDLLAVLRGLSEDFQRAEDASKFELCQLLPLFLPPTTVPPECHRDLQAGLARILGSKLSSWQRNPALKLAARLAHACGSDWIPVGSSGSKFLALLVNLACVEVRLALEETGTEVKEDVVTACYALMELGIQECTRCEQSLLKEPQKVQLVSIMKEAIGAVIHYLLRVGPEKQKEPFVFASVRILGAWLAEETSSLRKEVCQLLPFLVRYAKTLYEEAEEASDISQQVANLAISPTTPGPAWPGDALRLLLPGWCHLTVEDGPREILIKEGAPSLLCKYFLQQWELTSPGHDTSVLPDSVEIGLQTCCHIFLNLVVTAPGLIKRDACFTSLMNTLMTSLPSLVQQQGRLLLAANVATLGLLMARLLSTSPALQGTPASRGFFAAAILFLSQSHVARATPGSDQAVLALSPDYEGIWADLQELWFLGMQAFTGCVPLLPWLAPAALRSRWPQELLQLLGSVSPNSVKPEMVAAYQGVLVELARANRLCREAMRLQAGEETASHYRMAALEQCLSEP"
3,binds,"Dclk2 (protein, UniProt Q5MPA9 1-767) MASTRSIELEHFEERDKRPRPGSRRGAPSSSGGSSISGPKGNGLIPSPAHSAHCSFYRTRTLQALSSEKKAKKARFYRNGDRYFKGLVFAISSDRFRSFDALLIELTRSLSDNVNLPQGVRTIYTVDGSRKVTSLDELLEGESYVCASNEPFRKVDYTKNVNPNWSVNIKGGTTRTLAVASAKSEVKESKDFIKPKLVTVIRSGVKPRKAVRILLNKKTAHSFEQVLTDITEAIKLDSGVVKRLCTLDGKQVTCLQDFFGDDDVFIACGPEKYRYAQDDFVLDHSECRVLKSSYSRASAAKYSGSRSPGLSRRSKSPASVKRAGHSSAYSTAKSPVNGTPSSQLSTPKSTKSSSSSPTSPGSFRGLKQISAQGRSSSNVNGGPELDRCMSPEGVNGNRCSESFTLLEKYRIGKVIGDGNFAVVKECMDRSTGKEFALKIIDKAKCCGKEHLIENEVSILRRVKHPNIIMLVEEMETTTELFLVMELVKGGDLFDAITSSTKYTERDGSAMVYNLASALRYLHGLSIVHRDIKPENLLVCEYPDGTKSLKLGDFGLATVVEGPLYTVCGTPTYVAPEIIAETGYGLKVDVWAAGVITYILLCGFPPFRSENNLQEDLFDQILAGKLEFPAPYWDNITDSAKELISQMLQVNVEARCTAGEILSHPWVSDDASQENNMQAEVTGKLKQHFNNALPKQNSTTTGVSVIMNTALDKEGQVFCSKHCRDSSKSSREQTSAREAPPPPESPRPPGPPATSGCDPAGTWRRHRD"
4,binds,"Canx (protein, UniProt P35565 21-591) HDGHDDDMIDIEDDLDDVIEEVEDSKSKSDTSTPPSPKVTYKAPVPTGEVYFADSFDRGSLSGWILSKAKKDDTDDEIAKYDGKWEVDEMKETKLPGDKGLVLMSRAKHHAISAKLNKPFLFDTKPLIVQYEVNFQNGIECGGAYVKLLSKTSELNLDQFHDKTPYTIMFGPDKCGEDYKLHFIFRHKNPKTGVYEEKHAKRPDADLKTYFTDKKTHLYTLILNPDNSFEILVDQSVVNSGNLLNDMTPPVNPSREIEDPEDRKPEDWDERPKIADPDAVKPDDWDEDAPSKIPDEEATKPEGWLDDEPEYIPDPDAEKPEDWDEDMDGEWEAPQIANPKCESAPGCGVWQRPMIDNPNYKGKWKPPMIDNPNYQGIWKPRKIPNPDFFEDLEPFRMTPFSAIGLELWSMTSDIFFDNFIISGDRRVVDDWANDGWGLKKAADGAAEPGVVGQMLEAAEERPWLWVVYILTVALPVFLVILFCCSGKKQSNAMEYKKTDAPQPDVKDEEGKEEEKNKGDEEEEEEKLEEKQKSDAEEDGGTGSQDEEDSKPKAEEDEILNRSPRNRKPRRE"
5,binds,"Mccc2 (protein, UniProt Q5XIT9 23-563) YHGDAVARLGTQPDSGSSTYQENYEQMKALVNQLHERAQYVRLGGSEKARARHTSRGKLLPRDRIDNLIDPGSPFLEFSQFAGYKLYGEEEVPAGGIITGIGRVSGVECMIVANDATVKGGTYYPVTVKKHVRAQEIALQNRLPCIYLVDSGGANLPRQADTFPDRDHFGRIFYNQAIMSSKNITQIAVVMGSCTAGGAYVPAMADENIIVQRQGTIFLAGPPLVKAATGEEVSAEDLGGADLHCRRSGVTDHYALDDHHALHLTRKVVRSLNYQKKLDVTVEPSEEPLFPADELYGIVGANLKRSFDVREVIARIVDGSRFNEFKALYGDTLVTGFARIFGYPVGIIGNNGVLFSESAKKGAHFVQLCCQRNIPLLFLQNITGFMVGKDYEAEGIAKDGAKMVAAVSCAKVPKITVIIGGSYGAGNYGMCGRAYSPRFLYMWPNARISVMGGEQAATVLATVARDQRAREGKQFSSAEEAALKEPIIKRFEEEGNPYYSSARLWDDGIIDPVDTRLVLGLSISAALNAPIQRTDFGIFRM"
6,binds,"Acad9 (protein, UniProt B1WC61 42-625) SFAKELFLGHIQQKGVFPFPEVSQEELSEINQFVGPLEKFFNEEVDSRKIDQEGKIPADTLAKLKSLGLFGIQVPEEYGGLGLSNTMYARLGEIISMDASITVTLAAHQAIGLKGIILVGNEEQKAKYLPKLSSGEHIAAFCLTEPASGSDAASIQTRATLSEDKKYFVLNGSKVWITNGGLANIFTVFAKTEVVDSDGSIKDKMTAFIVERDFGGITNGKPEDKLGIRGSNTCEVHFENTRVPVENVLGEVGGGFKVAMNILNSGRFSMGSAVAGMLKKLIEQTAEYACTRKQFNRNLSEFGLIQEKFALMAQKAYVMESMAYLTSGMLDQPGFPDCSIEAAMVKVFSSEAAWQCVSEALQILGGSGYMKDYPYERMLRDARILLIFEGTNEILRLFIALTGLQHAGRILTSRIKELKSGNVTTVMETIGRKLRDSLGRTVDLGLSSNIAVVHPSLGDSANKLEENVHYFGRTVETLLLRFGKTIVEEQLVLKRVANILINLYGMTAVLSRASRSIRIGLKNHDHEILLANMFCVEAYFQNLFSLSQLDKYAPENLDEQIKKVSQQILEKRAYICAHPLDRAS"
7,binds,"Vac14 (protein, UniProt Q80W92 1-783) MNPEKDFAPLTPNIVRALNDKLYEKRKVAALEIEKLVRDFVAQNNTVQIKHVIQTLSQEFALSQHPHSRKGGLIGLAACSIALGKDSGLYLKELIEPVLTCFNDADSRLRYYACEALYNIVKVARGAVLPHFNVLFDGLSKLAADPDPNVKSGSELLDRLLKDIVTESSKFDLVGFIPLLRERIYSNNQYARQFIISWILVLVSVPDINLLDYLPEILDGLFQILGDNGKEIRKMCEVVLGEFLKEIKKNPSSVKFAEMANILVIHCQTTDDLIQLTAMCWMREFIQLAGRVMLPYSSGILTAVLPCLAYDDRKKSIKEVANVCNQSLMKLVTPEDDEPDEPKSVAQKQTEPNPEDSLPKQEGTASGGASGPCDSSFGSGISVFTSASTDRAPVTLHLDGIVQVLNCHLSDTTIGMMTRIAVLKWLYHLYIKTPRKMFRHTDSLFPILLQTLSDESDEVVLKDLEVLAEIASSPAGQTDDPGAPDGPDLQVNHSELQVPTSGRANLLNPPNTKGLECSPSTPTMNSYFYKFMINLLQTFSSERKLLEARGPFIIRQLCLLLNAENIFHSMADILLREEDLKFASTMVHTLNTILLTSTELFQLRNQLKDLKTLESQNLFCCLYRSWCHNPVTTVSLCFLTQNYRHAYDLIQKFGDLEVTVDFLTEVDKLVQLIECPIFTYLRLQLLDVKNNPYLMKALYGLLMLLPQSSAFQLLSHRLQCVPNPELLQTEDCLKAAPKSQKGDSPSIDYTELLQHFEKVQKQHLEVRHQRSGRGDHLDRRVVL"
8,binds,"Numb (protein, UniProt Q2LC84 1-652) MNKLRQSFRRKKDVYVPEASRPHQWQTDEEGVRTGKCSFPVKYLGHVEVDESRGMHICEDAVKRLKAERKFFKGFFGKTGKKAVKAVLWVSADGLRVVDEKTKDLIVDQTIEKVSFCAPDRNFDRAFSYICRDGTTRRWICHCFMAVKDTGERLSHAVGCAFAACLERKQKREKECGVTATFDASRTTFTREGSFRVTTATEQAEREEIMKQLQDAKKAETDKTVGPSVAPGNSAPSPSSPTSPTLDPTASLEMNNPHAIPRRHAPIEQLARQGSFRGFPALSQKMSPFKRQLSLRINELPSTMQRKTDFPIKNTVPEVEGEAESISSLCSQITSAFSTPCEDPFSSAPMTKPVTLVAPQSPVLQANGTDSALHVLTAKPASTALAPVAMPVRETNPWAHAPDAANKEIAAIHSGTEWGQSSGAASPGLFQAGHRRTPSEADRWLEEVSKSVRAQQPQASAAPLQPVLQPPPPAAIAPPAPPFQGHAFLTSQPVPVGVVPPLQPAFVSTQSYPVANGMPYPASNVPVVGITPSQMVANVFGTAGHPQATHPHQSPSLAKQQTFPQYETSSATTSPFFKPSAQHLNGSAAFNGVDNSGLVSGNRPAQVPPGTCPVDPFEAQWAALESKPKQRTNPSPTNPFSSDAQKAFEIEL"
9,binds,"Bag5 (protein, UniProt Q5QJC9 1-447) MDMGNQHPSISRLQEIQREVKSIEQQVVGFSGLSDDKNYKRLERILTKQLFEIDSVDTEGKGDIQQARKRAAQDTERLLKELEQNANHPHRIEIKNIFQEAQALVKEKTVPFYSGSNCVTSEFEEAIQDIILRLTHVKTGGKISLRKARYHTLTKICAVQEIIEDCVRKQPSLPLSEDVHPSVAKINSVMCEVNKARGTLIALLMGVDSSETCRHLSCVLSGLMADLDALDVCGRTEIRNYRREVVEDINKLLKYLDLEEEADNTHAFDLGQNHSIIKIENVLKRMREMKNELLQAQSPPELYLRSKTELQGLIGQLDEVSLEKNPCIREARRRAVIEVQTLITYLDLKEALEKRKLFPCEETPPHKAVWNVLGNLSEIQGEVLSFGGNRTDKNYIRLEELLTKQLLTLDAVDPLGEEKCKAARKQAVKLAQNILSYLDMKSDEWEY"
